Assay [1] has as its target T1, human 5HT1A receptor (Homo sapiens, UniProt P08908). The experiment in a line: [35S]GTPγS binding for 5-HT1A receptor inhibition (antagonist mode). Particulars: Example 78, HEK293 membranes, antagonist mode with serotonin 100 nM, <5 = not active at up to 10 μM. As for the experimental part:
Compounds showing affinity at the 5-HT1A receptor were tested for functional agonism and antagonism in a [^35S]GTPγS (guanine triphosphate (non-hydrolysable, labelled with ^35S) binding assay on membranes of HEK293 cells permanently transfected with human 5HT1A receptor (Perkin Elmer, USA).
Frozen membranes were thawed, briefly homogenized and were diluted in incubation buffer, 100 mM NaCl, 0.3 mM MgCl2 and 10 μM guanine diphosphate (GDP), pH 7.4-7.5) supplemented with 10 μg/ml saponin. Assay mixtures contained 10 μg of membrane protein and test compound, buffer, or control agonist (serotonin, 10 μM). For the antagonistic assay, control agonist was present in all wells containing compound at a sub-maximal concentration (serotonin, 100 nM). After 20 minutes pre-incubation at 37° C., [^35S]GTPγS was added to a final concentration of 0.25 nM, briefly shaken and further incubated for another 20 minutes. Reactions were terminated by rapid vacuum filtration through GF/B unifilter plates using a Packard Harvester. Filters were washed three times with wash buffer (10 mM NaH2PO4, 10 mM Na2HPO4, pH 7.4), dried overnight and bound counts were measured in a Topcount Scintillation Counter in the presence of Microscint O. % Specific Binding was calculated and curves were plotted with help of in house software where pIC50 values were determined and Kb values were calculated.

Protein sequences, listed by entry. Tags and fused reporters are not part of them.
UniProt P08908, whole entry: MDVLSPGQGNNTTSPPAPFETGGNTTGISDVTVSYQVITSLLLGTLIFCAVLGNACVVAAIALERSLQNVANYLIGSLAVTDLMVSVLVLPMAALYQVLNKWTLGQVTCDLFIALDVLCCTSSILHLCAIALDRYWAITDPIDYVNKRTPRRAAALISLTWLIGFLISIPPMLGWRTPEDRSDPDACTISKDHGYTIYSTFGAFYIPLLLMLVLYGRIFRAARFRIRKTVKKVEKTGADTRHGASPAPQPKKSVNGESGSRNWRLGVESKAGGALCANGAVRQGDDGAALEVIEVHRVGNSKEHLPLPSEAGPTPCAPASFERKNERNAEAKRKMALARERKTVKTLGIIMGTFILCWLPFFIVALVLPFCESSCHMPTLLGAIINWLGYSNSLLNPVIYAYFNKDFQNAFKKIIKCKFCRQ
UniProt P31645, whole entry: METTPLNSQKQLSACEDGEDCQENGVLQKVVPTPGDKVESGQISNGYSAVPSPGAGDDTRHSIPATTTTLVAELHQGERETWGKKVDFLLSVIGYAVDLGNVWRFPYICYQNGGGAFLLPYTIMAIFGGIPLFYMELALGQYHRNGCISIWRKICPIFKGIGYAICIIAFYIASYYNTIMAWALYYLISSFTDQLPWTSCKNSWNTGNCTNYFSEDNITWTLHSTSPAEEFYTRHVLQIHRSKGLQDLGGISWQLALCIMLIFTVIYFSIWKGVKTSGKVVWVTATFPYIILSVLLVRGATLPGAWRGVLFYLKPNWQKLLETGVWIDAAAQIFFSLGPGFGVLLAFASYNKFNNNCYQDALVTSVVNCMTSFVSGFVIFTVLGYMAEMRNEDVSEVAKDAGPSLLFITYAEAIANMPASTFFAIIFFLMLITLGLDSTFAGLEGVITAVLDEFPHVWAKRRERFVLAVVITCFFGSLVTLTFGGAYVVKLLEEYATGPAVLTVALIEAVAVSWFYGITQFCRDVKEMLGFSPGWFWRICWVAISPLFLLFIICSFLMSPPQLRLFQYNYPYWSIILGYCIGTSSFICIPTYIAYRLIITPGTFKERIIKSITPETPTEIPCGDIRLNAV

In assay [2] the target is T1, human 5HT1A receptor. The experiment in a line: Radioligand binding to the 5-HT1A receptor, [3H]8-OH-DPAT. The following applies: Example 77; membranes of HEK293 cells, [3H]8-OH-DPAT 0.5 nM; <5 = not active at up to 10 μM. As to the method:
Frozen membranes of HEK293 cells, stably-transfected with human 5-HT1A receptor (Perkin Elmer) were thawed on ice, briefly homogenised with an Ultra Turrax homogeniser and then suspended in Tris-HCl buffer (50 mM pH 7.7) supplemented with CaCl2 (4 mM) at an appropriate pre-determined protein concentration (5-10 μg protein per incubation mixture). Together with [^3H]8-OH-DPAT (0.5 nM final concentration; Perkin Elmer, USA), the membrane suspension was added to the test compound and incubated (30 min at 37° C.) in a total volume of 400 μl. Non-specific binding was determined in the presence of Spiroxatrine (1 μM). Free radioligand was separated from the radioligand-receptor complex by means of rapid vacuum filtration over GF/B unifilter plates with a Packard Harvester Filtration Unit. Unifilter plates were washed with ice cold Tris-HCl buffer (50 mM, pH 8.0) and then dried overnight. Bound counts were measured in a Topcount Scintillation Counter in the presence of Microscint O.

The next assay deals with human 5-HTT (Homo sapiens, UniProt P31645). In words: Radioligand binding to 5-HTT (serotonin transporter, SERT), [3H]Paroxetine. The following applies: Example 77; membranes of HEK293 cells, [3H]Paroxetine 0.5 nM; <5 = not active at up to 10 μM. As for the experimental part: For 5-HTT binding, frozen membranes of HEK293 cells stably-transfected with human 5-HTT (Perkin-Elmer, USA) were thawed on ice, briefly homogenised and resuspended in Tris-HCl buffer (50 mM, pH 7.4) supplemented with NaCl (120 mM) and KCl (5 mM) at a concentration of 50 μg protein per incubation mixture. The membrane suspension was added to the test compound together with [^3H]Paroxetine (0.5 nM) in a total volume of 250 μl and incubated (60 min, 25° C.). Non-specific binding was determined in the presence of imipramine (1 μM). Filtration was done over pre-soaked GF/B unifilters (0.01% PEI) and washed as above with the Tris-HCl salt buffer used for the incubation. Specific binding was calculated and sigmoidal curves were plotted by an internally-developed software program based on S-plus software. Ki values were calculated using the Cheng-Prusoff equation.

The structures given here were assigned with low confidence; some may be wrong.

On to `Cc1cc2c(OC[C@@H](O)CN3C[C@@H]4CC=CC[C@H]3CN4c3ccc4ccccc4c3)ccc(Cl)c2[nH]1`, for which the “h5HT1A Antagonist pIC50” value on human 5HT1A receptor [1] is listed as under 5. The “h5HT1A pIC50” value at human 5HT1A receptor [2] is listed as 6.29. Also, at human 5-HTT, the “h5HTT pIC50” value was determined as 7.49.

For the compound `Fc1ccc(CCN2C[C@@H]3C/C=C\C[C@H]2CN3c2ccccc2-c2ccccc2)cc1`, at human 5HT1A receptor [1], the “h5HT1A Antagonist pIC50” value is on record as under 5. Also, the “h5HT1A pIC50” value on human 5HT1A receptor [2] worked out at 5.12. Further, on human 5-HTT, the “h5HTT pIC50” value was 5.35.

Regarding `Cc1cc2c(OC[C@@H](O)CN3C[C@@H]4CC=CC[C@H]3CN4c3ccc4ccccc4c3)ccc(C)c2[nH]1`, the “h5HT1A Antagonist pIC50” value at human 5HT1A receptor [1] is under 5. Besides, on human 5HT1A receptor [2], the “h5HT1A pIC50” value is 6.22. The “h5HTT pIC50” value at human 5-HTT came out at 7.28.

Consider `Clc1cccc(N2C[C@@H]3CC=CC[C@H]2CN3)c1`, for which the “h5HT1A pIC50” value at human 5HT1A receptor [2] was under 5. In addition, the “h5HTT pIC50” value on human 5-HTT is given as 6.42.

`C1=CC[C@@H]2CN[C@H](C1)CN2c1ccc2ccccc2c1`: on human 5HT1A receptor [1], the “h5HT1A Antagonist pIC50” value is recorded as under 5. Further, the “h5HT1A pIC50” value at human 5HT1A receptor [2] amounted to 5.08. Further, the “h5HTT pIC50” value at human 5-HTT was 7.94.

These data come from patent publication US8530475B2, “Bridged aryl piperazines derivatives useful for the treatment of CNS, GI-urinary and reproductive disorders” (Janssen Pharmaceutica NV, priority 2006, dated 2013).
